Measurements as given in the M2OR odorant receptor database.
Substitutions are numbered along the chain they refer to. The list shows a part of the results. Calls are pooled over several reports, among them a noisy single-well screen.

Chains of the proteins cited; added tags and fusions are not shown. A line that says so, or that is headed by a name, gives the form on record, which may keep a tag or linker.
O11H2, as listed by the source: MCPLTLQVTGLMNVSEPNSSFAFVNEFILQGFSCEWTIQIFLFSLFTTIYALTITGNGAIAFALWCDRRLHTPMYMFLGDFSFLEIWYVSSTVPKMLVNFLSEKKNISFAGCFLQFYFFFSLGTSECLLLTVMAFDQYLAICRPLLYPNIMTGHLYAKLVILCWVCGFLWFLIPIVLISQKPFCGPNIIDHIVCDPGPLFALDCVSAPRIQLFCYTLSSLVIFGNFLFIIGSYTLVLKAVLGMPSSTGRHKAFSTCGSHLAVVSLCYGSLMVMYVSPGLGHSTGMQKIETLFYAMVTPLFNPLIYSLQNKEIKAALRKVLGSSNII

How the values were obtained:
Conditions in all cases: stereoisomer not certain
O10J3 = system: T1, O10J3
T1 sequence (whole entry): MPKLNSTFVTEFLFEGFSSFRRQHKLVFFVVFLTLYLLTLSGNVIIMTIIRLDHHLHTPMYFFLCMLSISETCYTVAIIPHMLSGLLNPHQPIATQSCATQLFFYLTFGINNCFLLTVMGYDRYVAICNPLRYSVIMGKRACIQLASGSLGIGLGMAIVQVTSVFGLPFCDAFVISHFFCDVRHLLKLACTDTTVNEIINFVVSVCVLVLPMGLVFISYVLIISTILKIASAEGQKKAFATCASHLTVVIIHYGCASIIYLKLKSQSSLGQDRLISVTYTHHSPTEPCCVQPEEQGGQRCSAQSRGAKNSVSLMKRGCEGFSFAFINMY
Outline: (§1)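 Each entry records the cell line, G-protein, co-transfected protein and tags used. Methods varied with the source, often transient luciferase assays in mammalian cell lines. A receptor–molecule pair is called responsive (active) if the original authors judged its signal statistically different from baseline and non-responsive (inactive) otherwise.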

O10J5 = system: T2, O10J5
T2 sequence (whole entry): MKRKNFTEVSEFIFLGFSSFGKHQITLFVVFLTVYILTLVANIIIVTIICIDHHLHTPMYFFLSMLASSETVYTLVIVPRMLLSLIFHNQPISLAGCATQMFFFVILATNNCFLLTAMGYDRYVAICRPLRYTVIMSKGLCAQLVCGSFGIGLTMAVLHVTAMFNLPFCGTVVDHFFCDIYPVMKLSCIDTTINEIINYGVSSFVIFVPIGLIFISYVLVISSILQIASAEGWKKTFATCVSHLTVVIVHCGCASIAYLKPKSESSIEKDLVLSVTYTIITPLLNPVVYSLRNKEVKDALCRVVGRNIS
Outline: as §1

O10P1 = system: T3, O10P1
T3 sequence (whole entry): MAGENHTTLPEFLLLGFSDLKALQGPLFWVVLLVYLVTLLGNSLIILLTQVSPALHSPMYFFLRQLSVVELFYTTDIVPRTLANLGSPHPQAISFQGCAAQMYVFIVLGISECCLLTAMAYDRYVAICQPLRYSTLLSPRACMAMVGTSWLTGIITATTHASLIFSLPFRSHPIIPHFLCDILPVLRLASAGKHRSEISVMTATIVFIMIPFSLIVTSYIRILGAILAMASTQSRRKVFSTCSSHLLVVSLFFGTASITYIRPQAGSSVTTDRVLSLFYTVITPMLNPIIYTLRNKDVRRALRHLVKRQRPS
Outline: as §1

O10Q1 = system: T4, O10Q1
T4 sequence (whole entry): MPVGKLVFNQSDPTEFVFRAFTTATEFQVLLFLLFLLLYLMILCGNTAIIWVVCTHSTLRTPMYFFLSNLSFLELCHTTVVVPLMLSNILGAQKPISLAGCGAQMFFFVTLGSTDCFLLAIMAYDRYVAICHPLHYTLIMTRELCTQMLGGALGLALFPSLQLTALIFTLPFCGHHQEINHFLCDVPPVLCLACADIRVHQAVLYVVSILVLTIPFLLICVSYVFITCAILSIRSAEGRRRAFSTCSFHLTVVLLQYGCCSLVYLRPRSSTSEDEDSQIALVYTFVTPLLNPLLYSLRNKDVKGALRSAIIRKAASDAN
Outline: as §1

O10R2 [1] = system: T5, O10R2
T5 sequence (whole entry): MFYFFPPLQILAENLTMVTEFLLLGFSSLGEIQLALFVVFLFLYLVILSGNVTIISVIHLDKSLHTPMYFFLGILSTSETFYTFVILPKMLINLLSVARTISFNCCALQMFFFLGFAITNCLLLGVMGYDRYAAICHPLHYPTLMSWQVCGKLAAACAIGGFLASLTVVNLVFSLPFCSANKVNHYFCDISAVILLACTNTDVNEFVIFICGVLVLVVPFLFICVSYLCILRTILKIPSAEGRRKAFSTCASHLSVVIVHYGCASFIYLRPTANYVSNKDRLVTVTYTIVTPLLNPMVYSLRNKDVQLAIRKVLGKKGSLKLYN
Outline: as §1

O10R2 [2] = system: T6, O10R2; remark: listed apart in the source
T6 sequence (whole entry): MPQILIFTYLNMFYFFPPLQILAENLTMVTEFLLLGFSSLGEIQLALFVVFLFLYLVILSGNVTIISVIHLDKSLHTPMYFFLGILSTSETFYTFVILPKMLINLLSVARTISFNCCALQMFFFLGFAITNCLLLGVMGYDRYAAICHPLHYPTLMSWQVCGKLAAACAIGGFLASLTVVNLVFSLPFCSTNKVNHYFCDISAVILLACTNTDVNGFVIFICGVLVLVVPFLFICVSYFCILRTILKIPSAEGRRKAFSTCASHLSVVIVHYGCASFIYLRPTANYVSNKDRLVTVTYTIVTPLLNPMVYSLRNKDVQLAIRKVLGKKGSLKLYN
Outline: as §1

O10V1 = system: T7, O10V1
T7 sequence (whole entry): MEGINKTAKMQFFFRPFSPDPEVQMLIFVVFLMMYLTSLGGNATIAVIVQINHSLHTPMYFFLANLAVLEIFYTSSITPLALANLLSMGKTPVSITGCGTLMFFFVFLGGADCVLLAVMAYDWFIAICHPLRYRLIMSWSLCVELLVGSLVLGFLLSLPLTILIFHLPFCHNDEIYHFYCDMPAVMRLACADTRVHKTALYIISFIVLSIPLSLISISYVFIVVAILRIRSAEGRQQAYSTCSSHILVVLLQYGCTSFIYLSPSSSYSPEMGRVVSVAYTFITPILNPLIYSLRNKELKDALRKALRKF
Outline: as §1

O10W1 = system: T8, O10W1
T8 sequence (whole entry): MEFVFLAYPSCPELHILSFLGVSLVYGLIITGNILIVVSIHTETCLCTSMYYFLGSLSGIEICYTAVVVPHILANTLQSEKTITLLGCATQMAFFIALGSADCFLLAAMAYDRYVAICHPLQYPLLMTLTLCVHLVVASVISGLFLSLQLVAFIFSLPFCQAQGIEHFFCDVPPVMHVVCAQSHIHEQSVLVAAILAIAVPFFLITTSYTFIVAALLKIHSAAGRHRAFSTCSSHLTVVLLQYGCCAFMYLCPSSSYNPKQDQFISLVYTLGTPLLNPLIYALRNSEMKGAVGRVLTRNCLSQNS
Outline: as §1

O10X1 = system: T9, O10X1
T9 sequence (whole entry): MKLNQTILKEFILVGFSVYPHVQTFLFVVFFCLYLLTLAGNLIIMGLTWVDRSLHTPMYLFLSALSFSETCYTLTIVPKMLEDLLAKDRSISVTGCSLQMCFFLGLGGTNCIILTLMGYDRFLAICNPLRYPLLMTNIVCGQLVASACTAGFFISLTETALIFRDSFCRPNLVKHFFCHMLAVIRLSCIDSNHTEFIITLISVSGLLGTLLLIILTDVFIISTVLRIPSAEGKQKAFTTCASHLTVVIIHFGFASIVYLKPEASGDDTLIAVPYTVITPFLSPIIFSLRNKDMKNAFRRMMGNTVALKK
Outline: as §1

O11G2 = system: T10, O11G2
T10 sequence (whole entry): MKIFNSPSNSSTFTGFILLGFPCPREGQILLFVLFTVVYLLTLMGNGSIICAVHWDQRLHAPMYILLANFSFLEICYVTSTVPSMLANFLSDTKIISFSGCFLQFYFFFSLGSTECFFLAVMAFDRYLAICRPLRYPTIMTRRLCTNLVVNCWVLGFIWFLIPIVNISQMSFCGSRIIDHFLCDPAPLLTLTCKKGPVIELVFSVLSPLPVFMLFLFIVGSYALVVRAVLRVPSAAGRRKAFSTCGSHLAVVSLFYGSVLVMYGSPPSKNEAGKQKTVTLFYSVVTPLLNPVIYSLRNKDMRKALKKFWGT
Outline: as §1

O11H1 [3] = system: T11, O11H1
T11 sequence (whole entry): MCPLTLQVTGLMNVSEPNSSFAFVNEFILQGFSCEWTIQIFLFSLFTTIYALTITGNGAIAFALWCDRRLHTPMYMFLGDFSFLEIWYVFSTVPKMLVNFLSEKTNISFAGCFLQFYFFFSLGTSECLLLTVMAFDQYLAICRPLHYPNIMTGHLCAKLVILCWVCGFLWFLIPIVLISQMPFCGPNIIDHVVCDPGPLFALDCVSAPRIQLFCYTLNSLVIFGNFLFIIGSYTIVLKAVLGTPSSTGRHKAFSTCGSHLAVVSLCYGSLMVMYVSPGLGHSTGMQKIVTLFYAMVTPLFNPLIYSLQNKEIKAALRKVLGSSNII
Outline: as §1

O11H1 [4] = system: T12, O11H1; remark: listed apart in the source
T12 sequence (whole entry): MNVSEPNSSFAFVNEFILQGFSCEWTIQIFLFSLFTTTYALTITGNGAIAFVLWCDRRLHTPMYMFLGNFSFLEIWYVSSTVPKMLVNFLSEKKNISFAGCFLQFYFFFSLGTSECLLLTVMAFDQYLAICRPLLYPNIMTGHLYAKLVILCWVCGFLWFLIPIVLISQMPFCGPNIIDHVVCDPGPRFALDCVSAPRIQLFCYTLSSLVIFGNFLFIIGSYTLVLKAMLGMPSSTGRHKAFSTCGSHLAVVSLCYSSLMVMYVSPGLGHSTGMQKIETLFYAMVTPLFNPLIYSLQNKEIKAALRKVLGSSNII
Outline: as §1

O11H2 = system: T13, O11H2
T13 sequence (whole entry): T11 sequence (whole entry) with F90S, T105K, H146L, C156Y, M181K, V192I, N218S, I235L, T243M, V289E
Outline: as §1

O11H4 = system: T14, O11H4
T14 sequence (whole entry): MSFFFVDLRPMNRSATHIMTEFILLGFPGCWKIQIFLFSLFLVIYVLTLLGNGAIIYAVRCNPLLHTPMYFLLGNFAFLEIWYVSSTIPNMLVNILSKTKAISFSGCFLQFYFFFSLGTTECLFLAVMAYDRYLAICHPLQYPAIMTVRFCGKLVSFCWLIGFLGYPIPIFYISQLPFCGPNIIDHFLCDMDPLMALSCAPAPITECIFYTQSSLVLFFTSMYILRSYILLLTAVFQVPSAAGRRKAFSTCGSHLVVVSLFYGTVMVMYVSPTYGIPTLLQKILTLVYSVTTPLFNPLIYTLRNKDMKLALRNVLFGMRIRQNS
Outline: as §1

O11L1 = system: T15, O11L1
T15 sequence (whole entry): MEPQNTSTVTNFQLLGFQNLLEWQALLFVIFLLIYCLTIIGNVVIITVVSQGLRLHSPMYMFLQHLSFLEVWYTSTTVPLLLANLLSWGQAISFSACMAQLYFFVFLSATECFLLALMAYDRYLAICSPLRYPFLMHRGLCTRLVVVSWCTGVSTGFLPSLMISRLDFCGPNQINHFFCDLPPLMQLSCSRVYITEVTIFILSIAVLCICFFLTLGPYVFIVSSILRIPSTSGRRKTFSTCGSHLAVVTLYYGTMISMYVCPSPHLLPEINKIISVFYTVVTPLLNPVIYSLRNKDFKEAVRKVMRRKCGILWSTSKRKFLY
Outline: as §1

O12D2 = system: T16, O12D2
T16 sequence (whole entry): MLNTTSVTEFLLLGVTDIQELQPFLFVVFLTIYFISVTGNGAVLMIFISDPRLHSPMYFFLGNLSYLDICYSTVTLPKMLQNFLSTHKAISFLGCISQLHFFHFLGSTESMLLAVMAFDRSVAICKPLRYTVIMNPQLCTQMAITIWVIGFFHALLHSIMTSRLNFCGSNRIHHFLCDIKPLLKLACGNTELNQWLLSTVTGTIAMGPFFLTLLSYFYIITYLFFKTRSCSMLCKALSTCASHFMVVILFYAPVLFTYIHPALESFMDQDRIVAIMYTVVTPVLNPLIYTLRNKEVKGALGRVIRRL
Outline: as §1

O13C3 = system: T17, O13C3
T17 sequence (whole entry): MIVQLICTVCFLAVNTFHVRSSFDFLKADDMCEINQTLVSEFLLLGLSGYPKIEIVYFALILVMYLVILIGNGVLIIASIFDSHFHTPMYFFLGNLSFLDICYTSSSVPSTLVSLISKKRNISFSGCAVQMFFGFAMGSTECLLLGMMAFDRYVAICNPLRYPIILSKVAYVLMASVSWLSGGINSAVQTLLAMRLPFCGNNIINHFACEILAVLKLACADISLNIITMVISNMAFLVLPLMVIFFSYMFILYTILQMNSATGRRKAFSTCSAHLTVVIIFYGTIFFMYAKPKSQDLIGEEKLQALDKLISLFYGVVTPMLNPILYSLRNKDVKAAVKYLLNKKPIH
Outline: as §1

Measured: odorant receptor agonist call

CC(=O)OC1CC2CCC1(C)C2(C)C (configuration not stated)
inactive: all assays above

CC12CCC(CC1)C(C)(C)O2
active: O10J3
inactive: all other assays above

CCCCCC(=O)O
active: O10J3
inactive: all other assays above

CC12C=CCC1C1CCC3CC(=O)CCC3(C)C1CC2 (configuration not stated)
active: O10Q1 | O10W1
inactive: all other assays above

C=CCc1ccc(OC(C)=O)c(OC)c1
active: O10J3 | O10Q1 | O11G2 | O11H1 [4] | O13C3
inactive: all other assays above

CC(=O)OC(C)(C)C1CC=C(C)CC1 (configuration not stated)
active: O11H1 [4]
inactive: all other assays above
